EP3225590A1 (Université de Strasbourg, priority 2016, dated 2017)

Assays:
ANR-L1 = experiment: Fluorescence titration of ANR-L1 suspension with analyte, 1:1 single-site binding fit; conditions: 10 mM HEPES buffer (pH 7.3), ANR 250 µg/mL; >> = less than 10% change in emission intensity at >50 molar excess of analyte; error less than ±20%
ANR-Y1 = experiment: Fluorescence titration of ANR-Y1 suspension with analyte, 1:1 single-site binding fit; conditions: 10 mM HEPES buffer (pH 7.3), ANR 250 µg/mL; >> = less than 10% change in emission intensity at >50 molar excess of analyte; error less than ±20%

Kd (ANR-L1): > 1 mM | Kd (ANR-Y1): > 1 mM
SMILES: CC(C)NCC(O)COc1cccc2ccccc12 (centres unmarked) [propranolol]
